Measurements from article PMC11783328.
These are yes or no findings as the source states them, for the method shown. Some binding calls cover weakened binding; strength is not graded here.

Target: 21N13 Fab (rhesus macaque (Macaca mulatta))
Assay: crystal structure; both purified

B1: 21N13 Fab (Fab, V domains shown)
VH: QVQLQESGPGRVKPSETLSLTCAVSDDSFGSSYFYWSWIRQAPGKGLEWIGYIAYSGGVRYNPSLSSRVTISRNIHERQFYLRLTSMTAADTAVYYCARHCEDDYGYYSAAQSYGLDSWGQGIAVTVSP
VL: DIQMTQSPSSLSASVGDRVTITCRTSENVNNCLNWYQQKPGKAPKLLIYRTSTLQRGVPSRFSGTGSGTDYTLTISSLQSEDFGTYYCQHYYGTPLTFGGGTMVDIK
binding: binds
